In PubChem BioAssay AID504444 (National Center for Advancing Translational Sciences (NCATS), 2011):
Out of some 360,000 compounds screened, about 7,500 (2.1%) were called active. Inconclusive means that the source gave no clear call. Such entries were picked first, then a sample of the others. The call rests on the fitted dose curve; in most records, active means well fitted inhibition curve with a large enough effect; inconclusive means small, poorly fitted or top-dose-only effect, or effect the other way; inactive means flat fitted curve, though single readings scatter. A potency beside an inconclusive call is a rough fit, not a confirmed value.

test: Nrf2 qHTS screen for inhibitors; settings: A549 ARE-Fluc reporter, luciferase luminescence, 18-24 h; activity change, negative = inhibition: at 46 µM (top of the series); further: nearly all actives have a fitted effect of over 60% in size
How it was run: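 Concentration-response testing used A549 ARE_Fluc cells at 5000 cells/well. Following an 18-24 h compound incubation, viability was read by fluorescence (Ex 405/Em 525) and luciferase output by luminescence.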
On the % scale 0 is the no-effect control and ±100 the full control effect; potency means the concentration at half of the fitted maximal effect.

Row | SMILES | Potency | activity change, negative = inhibition
1 | CCc1cccc(NS(=O)(=O)c2ccc3c(c2)oc(=O)n3C)c1 | inconclusive: 32.6 µM [falling, single point] | 
2 | COCCn1c(C)c(C)c2c(NCCc3ccccc3)ncnc21 | inconclusive: 1.46 µM [activator, full curve] | 
3 | CCN1CCOC(=O)C1CC(=O)Nc1cccc(OC)c1 (stereo unspecified) |  | inactive: 1.39%
4 | CCN(CC)S(=O)(=O)c1ccc(S(=O)(=O)N2CCCC(C(=O)NC3CC3)C2)cc1 (stereo unspecified) | active: 5.8 µM | 
5 | CC(C)(C)c1ccc(C(=O)NC(=S)Nc2sc3c(c2C#N)CCC3)cc1 | inconclusive: 29.1 µM [activator, single point] | 
6 | Cc1ccc(C2=Nc3ccccc3N(CC(=O)Nc3ccccc3C)C(=O)C2)cc1C | inconclusive: 23.1 µM [falling, partial curve, poor fit] | 
7 | CCOc1ccc(-c2cc(C(=O)N/N=C/c3cccnc3)c3ccccc3n2)cc1 | inconclusive: 23.1 µM [activator, single point] | 
8 | O=C(NC(=S)Nn1cnnc1)c1ccccc1Br |  | inactive: 5.41%
9 | O=C(O)c1cccc2c1C(=O)c1ccccc1C2=O |  | inactive: -15.8%
10 | Cc1ccccc1NC1=C/C(=N\S(=O)(=O)c2ccc(C(=O)O)cc2)c2ccccc2C1=O |  | inactive: -1.99%
11 | N=c1ccn2c(n1)O[C@H]1[C@@H](CO)[C@H](O)O[C@H]12 | inconclusive: 0.0731 µM [falling, full curve, poor fit] | 
12 | Nc1ccccc1C(=O)NCc1ccc(Cl)cc1 |  | inactive: 2.01%
13 | Cc1ccc(N2CCn3c2nc2c3c(=O)n(CCCc3ccccc3)c(=O)n2C)cc1 |  | inactive: -14.2%
14 | CSc1ccccc1NC(=O)COc1ccccc1C | inconclusive: 29.1 µM [activator, single point] | 
15 | CC(C)(C)C(=O)NC(NC(=S)Nc1sc2c(c1C#N)CCCC2)C(Cl)(Cl)Cl (stereo unspecified) | inconclusive: 23.1 µM [falling, single point] | 
16 | CC(=O)C1CCC2C3CCC4=CC(=O)CC[C@]4(C)[C@@]3(F)C(O)C[C@]12C (stereo partly specified) | active: 2.91 µM | 
17 | CCCCn1nc(C(=O)NCC2COc3ccccc3O2)c2ccccc2c1=O (stereo unspecified) | inconclusive: 23.1 µM [falling, single point] | 
18 | Cc1ccc(Nc2nc(N)c([N+](=O)[O-])c(N3CCOCC3)n2)cc1C |  | inactive: -4.79%
19 | Cc1ccccc1N(C)C(=O)c1noc2c1COc1ccccc1-2 | inconclusive: 0.461 µM [activator, full curve, poor fit] | 
20 | C[C@@H]1CN([C@H](C)CO)C(=O)c2cc(NC(=O)Nc3ccc(C(F)(F)F)cc3)ccc2O[C@H]1CN(C)S(=O)(=O)c1ccccc1 | active: 16.4 µM | 
21 | Cc1c(C(=O)N2CCOCC2)c(S(=O)(=O)Nc2ccccc2)c(C)n1C | inconclusive: 18.4 µM [falling, single point] | 
22 | COc1ccccc1CCC(=O)OCC(=O)c1c(N)n(CC(C)C)c(=O)n(C)c1=O | inconclusive: 9.2 µM [falling, partial curve] | 

Row | SMILES | Potency | activity change, negative = inhibition
23 | CNc1ccc(Br)cc(C(=O)/C=C/c2ccc(OC)cc2)c1=O |  | inactive: 0.0823%
24 | COc1ccc(NS(=O)(=O)c2ccc(Oc3ncccn3)cc2)cc1 | active: 20.6 µM | 
25 | CC(C)(C)C1CCc2onc(C(=O)Nc3ccc4c(c3)OCO4)c2C1 (stereo unspecified) | inconclusive: 25.9 µM [falling, single point] | 
26 | C=Cn1cc[n+](CC(=O)c2ccc(OC)cc2)c1 | inconclusive: 16.4 µM [falling, partial curve] | 
27 | C/C(=N\Nc1ncc(Br)cn1)c1cccc([N+](=O)[O-])c1 | inconclusive: 2.31 µM [falling, partial curve] | 
28 | CCOC(=O)c1cnc(Nc2ccccc2)nc1C(F)(F)F | inconclusive: 20.6 µM [activator, partial curve, poor fit] | 
29 | CN(CC(=O)NCCc1ccc(S(N)(=O)=O)cc1)Cc1c(F)cccc1Cl |  | inactive: -4.75%
30 | O=C(NCc1nnc2c3ccccc3c(-c3ccccc3)nn12)c1ccc(Cl)cc1 | active: 20.6 µM | 
31 | C#CCn1c(/C=C/c2ccc(Cl)cc2)nc2ccccc21 | inconclusive: 5.8 µM [activator, full curve, poor fit] | 
32 | COC(=O)C1C2C=CC3(CN(C(C)C)C(=O)C13)O2 (stereo unspecified) | inconclusive: 11.6 µM [activator, partial curve, poor fit] | 
33 | O=C(c1ccco1)N1CCN(c2ccc(N3CCCCC3)nn2)CC1 | inconclusive: 0.461 µM [activator, full curve, poor fit] | 
34 | Cc1ccc(N2C(=O)Nc3ccccc3C2(O)C(=O)N2CCN(c3ccccn3)CC2)cc1C (stereo unspecified) | inconclusive: 18.4 µM [activator, single point] | 
35 | CCN(c1ccc(OC)cc1)S(=O)(=O)c1nnc(NC(=O)COc2ccc(F)cc2)s1 | inconclusive: 32.6 µM [falling, single point] | 
36 | Cc1occc1C(=O)N(C)Cc1nc(-c2ccccc2)no1 | inconclusive: 29.1 µM [activator, partial curve] | 
37 | Cn1c(C(=O)NCCCN2CCCC2=O)cc2c(=O)n(C)c3ccccc3c21 | inconclusive: 29.1 µM [falling, single point] | 
38 | COc1ccc(-c2nc(CS(=O)CC(=O)NC3CCCc4ccccc43)c(C)o2)cc1OC (stereo unspecified) |  | inactive: -19%
39 | Nc1ccc(CSc2ccccc2)cc1 | inconclusive: 23.1 µM [activator, partial curve, poor fit] | 
40 | COc1ccc([C@H]2CC(=O)C=C(c3cc(Cl)cc(Cl)c3)C2)cc1 | inconclusive: 32.6 µM [falling, single point] | 
41 | Cc1onc(-c2ccccc2)c1C(=O)OCC(=O)Nc1ccc(OC(F)(F)F)cc1 | active: 23.1 µM | 
42 | COc1ccccc1NS(=O)(=O)c1cccc(C(=O)NNC(=O)c2ccc(Cl)nc2)c1 | inconclusive: 23.1 µM [falling, partial curve, poor fit] | 
43 | O=C1c2ccc(Oc3cccc([N+](=O)[O-])c3)cc2C(=O)N1c1ccccn1 | inconclusive: 0.116 µM [falling, full curve, poor fit] | 
44 | CCOc1ccc(CN2CCN(c3ncnc4scc(-c5ccccc5)c34)CC2)cc1 | inconclusive: 29.1 µM [falling, single point] | 

Row | SMILES | Potency | activity change, negative = inhibition
45 | O=C1c2cccc(NCCCNCCO)c2C(=O)c2cccc(NCCCNCCO)c21 | inconclusive: 16.4 µM [falling, single point] | 
46 | CCC(C(=O)N1CCN(c2cc(Cl)ccc2C)CC1)n1nc(C)c2sc3ccccc3c2c1=O (stereo unspecified) | inconclusive: 7.31 µM [falling, partial curve, poor fit] | 
47 | O=C(c1cccs1)N1CCN(S(=O)(=O)N2CCOCC2)CC1 | inconclusive: 11.6 µM [activator, partial curve, poor fit] | 
48 | COc1cccc(N=C2CC(C)(C)CC(=O)/C2=C(/O)c2ccccc2)c1 |  | inactive: 3.82%
49 | O=C(Nc1cccc(S(=O)(=O)N2CCCCC2)c1)C1CCN(C(=O)c2ccc(Cl)cc2)CC1 | inconclusive: 29.1 µM [falling, single point] | 
50 | CCOc1ccc(-c2noc(CSc3nnc(-c4ccccc4)n3-c3ccccc3)n2)cc1 | inconclusive: 25.9 µM [falling, partial curve, poor fit] | 
51 | CCOc1ncccc1C(=O)Nc1cc2c(cc1Br)OCCO2 | inconclusive: 23.1 µM [activator, single point] | 
52 | COc1ccc(S(=O)(=O)N(C)C[C@H]2Oc3c(NC(=O)Nc4ccc(C(F)(F)F)cc4)cccc3C(=O)N([C@H](C)CO)C[C@@H]2C)cc1 | inconclusive: 29.1 µM [falling, single point] | 
53 | CSCCC(NS(=O)(=O)c1ccccc1F)C(=O)NCCCn1nc(C)cc1C (stereo unspecified) |  | inactive: 16.3%
54 | COc1ccc(-c2nnc(SCC(=O)Nc3nncs3)o2)cc1 | inconclusive: 2.31 µM [activator, partial curve, poor fit] | 
55 | Cc1ccc(Cn2c(C)nc3ccc([N+](=O)[O-])cc3c2=O)cc1 | inconclusive: 3.66 µM [falling, partial curve, poor fit] | 
56 | CCCN(CC(=O)Nc1ccccc1C)C(=O)/C=C/c1ccc(OCC)c(OC)c1 | inconclusive: 0.92 µM [falling, full curve, poor fit] | 
57 | O=C(c1cc2ccccc2oc1=O)N(Cc1ccco1)C1CCS(=O)(=O)C1 (stereo unspecified) | inconclusive: 9.2 µM [activator, partial curve, poor fit] | 
58 | COc1ccc(CC(=O)Nc2ccccc2-c2ccccc2)cc1OC | inconclusive: 16.4 µM [falling, single point] | 
59 | COc1ccc(N(C(=O)c2ccco2)S(=O)(=O)c2cc(Cl)c(Cl)cc2Cl)cc1 | inconclusive: 23.1 µM [falling, single point] | 
60 | O=C(Nc1ccccc1)c1ccco1 | inconclusive: 14.6 µM [activator, partial curve, poor fit] | 
61 | O=C(NN(c1ccccc1)c1ccccc1)c1ccc([N+](=O)[O-])o1 |  | inactive: -9.57%
62 | COc1ccc(N2CCN(c3nc(NCCc4ccc(OC)c(OC)c4)nc(OC)n3)CC2)cc1 | inconclusive: 25.9 µM [falling, partial curve, poor fit] | 
63 | CNC(=O)c1ccc(-c2nc(-c3ccccc3)cs2)cc1 | inconclusive: 2.91 µM [activator, full curve, poor fit] | 
64 | COc1ccc(NC(=O)Cc2csc(COc3cccc(C)c3)n2)cc1OC | active: 23.1 µM | 
65 | Cc1ccc(/C(N)=N/OC(=O)c2cccs2)cc1 | inconclusive: 10.3 µM [activator, partial curve] | 
66 | Cc1ccc(C)c(S(=O)(=O)c2nnn3c2nc(NCc2cccs2)c2sccc23)c1 | inconclusive: 18.4 µM [falling, single point] | 

Filtered by structure: the entries above containing an aryl methoxy group (17)
Row | SMILES | Potency | activity change, negative = inhibition
3 | CCN1CCOC(=O)C1CC(=O)Nc1cccc(OC)c1 (stereo unspecified) |  | inactive: 1.39%
22 | COc1ccccc1CCC(=O)OCC(=O)c1c(N)n(CC(C)C)c(=O)n(C)c1=O | inconclusive: 9.2 µM [falling, partial curve] | 
23 | CNc1ccc(Br)cc(C(=O)/C=C/c2ccc(OC)cc2)c1=O |  | inactive: 0.0823%
24 | COc1ccc(NS(=O)(=O)c2ccc(Oc3ncccn3)cc2)cc1 | active: 20.6 µM | 
26 | C=Cn1cc[n+](CC(=O)c2ccc(OC)cc2)c1 | inconclusive: 16.4 µM [falling, partial curve] | 
35 | CCN(c1ccc(OC)cc1)S(=O)(=O)c1nnc(NC(=O)COc2ccc(F)cc2)s1 | inconclusive: 32.6 µM [falling, single point] | 
38 | COc1ccc(-c2nc(CS(=O)CC(=O)NC3CCCc4ccccc43)c(C)o2)cc1OC (stereo unspecified) |  | inactive: -19%
40 | COc1ccc([C@H]2CC(=O)C=C(c3cc(Cl)cc(Cl)c3)C2)cc1 | inconclusive: 32.6 µM [falling, single point] | 
42 | COc1ccccc1NS(=O)(=O)c1cccc(C(=O)NNC(=O)c2ccc(Cl)nc2)c1 | inconclusive: 23.1 µM [falling, partial curve, poor fit] | 
48 | COc1cccc(N=C2CC(C)(C)CC(=O)/C2=C(/O)c2ccccc2)c1 |  | inactive: 3.82%
52 | COc1ccc(S(=O)(=O)N(C)C[C@H]2Oc3c(NC(=O)Nc4ccc(C(F)(F)F)cc4)cccc3C(=O)N([C@H](C)CO)C[C@@H]2C)cc1 | inconclusive: 29.1 µM [falling, single point] | 
54 | COc1ccc(-c2nnc(SCC(=O)Nc3nncs3)o2)cc1 | inconclusive: 2.31 µM [activator, partial curve, poor fit] | 
56 | CCCN(CC(=O)Nc1ccccc1C)C(=O)/C=C/c1ccc(OCC)c(OC)c1 | inconclusive: 0.92 µM [falling, full curve, poor fit] | 
58 | COc1ccc(CC(=O)Nc2ccccc2-c2ccccc2)cc1OC | inconclusive: 16.4 µM [falling, single point] | 
59 | COc1ccc(N(C(=O)c2ccco2)S(=O)(=O)c2cc(Cl)c(Cl)cc2Cl)cc1 | inconclusive: 23.1 µM [falling, single point] | 
62 | COc1ccc(N2CCN(c3nc(NCCc4ccc(OC)c(OC)c4)nc(OC)n3)CC2)cc1 | inconclusive: 25.9 µM [falling, partial curve, poor fit] | 
64 | COc1ccc(NC(=O)Cc2csc(COc3cccc(C)c3)n2)cc1OC | active: 23.1 µM | 

2 neighbouring records from above, for reference:
Row | SMILES | Potency | activity change, negative = inhibition
51 | CCOc1ncccc1C(=O)Nc1cc2c(cc1Br)OCCO2 | inconclusive: 23.1 µM [activator, single point] | 
52 | COc1ccc(S(=O)(=O)N(C)C[C@H]2Oc3c(NC(=O)Nc4ccc(C(F)(F)F)cc4)cccc3C(=O)N([C@H](C)CO)C[C@@H]2C)cc1 | inconclusive: 29.1 µM [falling, single point] | 
